For the assay, the target named is T25-RhlE2, bacterial two-hybrid fusion of RhlE2 (P. aeruginosa) (UniProt Q9I689). Put plainly: two-hybrid.

These are yes or no findings as the source states them, for the method shown. Tags and fused reporters may be left off the sequences shown.

B1: PNPase, bacterial two-hybrid fusion (enzyme, UniProt Q9HV59 1-701)
chain: MNPVTKQFQFGQSTVTLETGRIARQATGAVLVTMDDVSVLVTVVGAKSPAEGRDFFPLSVHYQEKTYAAGRIPGGFFKREGRPSEKETLTSRLIDRPIRPLFPEGFMNEVQVVCTVVSTNKKSDPDIAAMIGTSAALAISGIPFAGPIGAARVGFHPEIGYILNPTYEQLQSSSLDMVVAGTEDAVLMVESEADELTEDQMLGAVLFAHDEFQAVIRAVKELAAEAGKPAWDWKAPAENTVLVNAIKAELGEAISQAYTITIKQDRYNRLGELRDQAVALFAGEEEGKFPASEVKDVFGLLEYRTVRENIVNGKPRIDGRDTRTVRPLRIEVGVLGKTHGSALFTRGETQALVVATLGTARDAQLLDTLEGERKDAFMLHYNFPPFSVGECGRMGSPGRREIGHGRLARRGVAAMLPTQDEFPYTIRVVSEITESNGSSSMASVCGASLALMDAGVPVKAPVAGIAMGLVKEGEKFAVLTDILGDEDHLGDMDFKVAGTDKGVTALQMDIKINGITEEIMEIALGQALEARLNILGQMNQVIAKPRAELSENAPTMLQMKIDSDKIRDVIGKGGATIRGICEETKASIDIEDDGSVKIYGETKEAAEAAKLRVLAITAEAEIGKIYVGKVERIVDFGAFVNILPGKDGLVHISQISDKRIDKVTDVLQEGQEVKVLVLDVDNRGRIKLSIKDVAAAEASGV
As for B1, the binding entry is given as “no binding”.

For the origin of these results see publication doi:10.1101/2021.01.29.428592.
